The assay can be described thus: qHTS Assay to Find Inhibitors of Chronic Active B-Cell Receptor Signaling. As to conditions: ABC-DLBCL IkBa-CBG/CBR reporter, luminescence ratio (green luciferase fused to IkBa over red control in TMD8 lymphoma cells), 4 h. An outline of the steps: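 Concentration-response series (up to 46 uM) were applied to TMD8 dual-reporter cells for 4 h at 37C with doxycycline. Green/red ratio, after filter-overlap correction, defined %Activity; red signal alone was normalised to basal cells and zero luminescence.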

[1] abbreviates: measured here: CBR red luminescence, cell number.
Where [2] appears, read: measured here: IkBa-CBG green luminescence.

Consider 60 compounds from PubChem BioAssay AID493014 (National Center for Advancing Translational Sciences (NCATS), 2011).

What is called AC50 is the concentration giving half of the maximal activity seen.

The list shows a part of the results. Further columns of the screen follow, without active or inactive calls. Most of these compounds were active or inconclusive in the main read-out, so they are no random draw. The note in brackets gives the kind of curve behind each potency; many fits are weak.

As to `C/C=C/C(=O)N1CC2(CC(c3cccc(NC(=O)CC(c4ccccc4)c4ccccc4)c3)=NO2)C[C@H]1C(N)=O` (stereo partly specified), under setting [1], the AC50 was 1.58 µM [rising, partial curve]. As to `O=C(O)CCc1ccc(-c2cccs2)n1Cc1ccco1`, the AC50 under setting [1] was 25.9 µM [rising, single point]. Turning to `N[C@@H](Cc1ccccc1)c1nnc(SCc2ccccc2Cl)o1`, the AC50 under setting [2] is 29.1 µM [falling, single point]. Turning to `CCCCCCN(C(=O)CCl)c1ccccc1`, under setting [1], the AC50 is 7.94 µM [falling, partial curve]. Turning to `CCCCN1C(=O)C2Cc3c([nH]c4ccccc34)CN2C1=S` (stereo unspecified), the AC50 under setting [1] is 35.5 µM [falling, single point]. `Cc1cc(C)nc(NC(=O)c2ccc(Cl)cc2)n1`: the AC50 under setting [1] is 5.62 µM [rising, single point]. Same read-out and setting: for `Cc1ccc(-n2c(SCC(=O)OC(C)C)nnc2-c2cnccn2)cc1` the value was 35.5 µM [rising, single point]. As to `CCc1nnc(NC(=O)CSc2nccn2-c2cccc(C)c2C)s1`, the AC50 under setting [1] is 22.4 µM [falling, single point].

Turning to `Cc1cc(N2CCN(C)CC2)ccc1NC(=O)c1c2c(nc3ccccc13)CCN(Cc1ccccc1)C2`, under setting [1], the AC50 was 5.62 µM [falling, single point]. As for `O=C(NCCc1ccncc1)C12CC3CC(CC(C3)C1)C2`, the half-maximal activity concentration (AC50) under setting [1] is 29.1 µM [rising, single point].

In the case of `C/C(Cl)=C\Cn1c(Nc2ccccc2)nc2c1c(=O)n(C)c(=O)n2C`, the AC50 under setting [1] was 2.24 µM [falling, full curve, poor fit]. Consider `CC(OC(=O)c1ccc(NC(=O)CC#N)cc1)C(=O)Nc1ccc2c(c1)OCCO2` (stereo unspecified), for which the AC50 under setting [1] is 23.1 µM [falling, partial curve, poor fit]. Same read-out and setting: with `CCSC1=C(C#N)C(c2ccc(Cl)cc2)C2=C(CCCC2=O)N1` (stereo unspecified) the figure was 18.4 µM [falling, single point]; with `CCCS(=O)(=O)N1CCC(C(=O)NCCN2CCCC2)CC1`, 0.146 µM [falling, full curve, poor fit]. Turning to `CCOc1cc(/C=N\NC(N)=O)cc(Br)c1OC(C)C`, the AC50 is, setting by setting: under setting [1], 18.4 µM [rising, partial curve, poor fit]; under setting [2], 23.1 µM [falling, partial curve, poor fit]. As to `Cc1ccc(/C=N/NC(=O)c2csc3c2CCCC3)cc1`, the AC50 is 2.24 µM [falling, partial curve] under setting [1] and 28.2 µM [falling, single point] under setting [2]. As to `CCOC(=O)C1(CCOc2ccccc2)CCN(Cc2ccc(O)cc2)CC1`, under setting [1], the AC50 is 15.8 µM [falling, partial curve, poor fit]. For the compound `CCCc1cc(=O)oc2c(C)c(OCC(=O)NCCN3CCOCC3)ccc12`, under setting [1], the AC50 was 25.1 µM [rising, single point]. Turning to `COC(=O)c1ccc2c(=O)n(CCCCCC(=O)NCc3ccc(OC)cc3)c(=O)[nH]c2c1`, under setting [1], the AC50 is 1.26 µM [falling, partial curve, poor fit]. As for `CNC(=O)C1C2C=CC3(O2)C1C(=O)N(C1CC1)C3C(=O)NCc1ccc(OC)cc1` (stereo unspecified), the half-maximal activity concentration (AC50) under setting [1] was 6.51 µM [rising, full curve, poor fit]. Regarding `CC(C)COc1ccc(CNC(=S)N/N=C/c2ccc([N+](=O)[O-])cc2)cc1`, under setting [1], the AC50 was 29.1 µM [rising, partial curve, poor fit].

On to `CN(CCOC(=O)/C=C/c1ccco1)Cc1ccccc1`, for which, under setting [1], the half-maximal activity concentration (AC50) is 3.98 µM [rising, single point]. `O=C1NCCN/C1=C\C(=O)c1cccc(Br)c1`: the concentration at half-maximal activity (AC50) under setting [1] was 11.2 µM [falling, single point]. For `O=S(=O)(NCCc1csc2nc(-c3ccc(Cl)cc3)nn12)c1ccc2c(c1)OCCO2`, under setting [1], the AC50 was 3.55 µM [rising, full curve]. For the compound `COc1ccc(OC)c(CN2CCC(CNC(=O)Nc3cccc(Cl)c3)CC2)c1`, the AC50 under setting [1] was 35.5 µM [falling, partial curve, poor fit].

Regarding `CCCCC(=O)NC(Nc1nc(C2CC2)cs1)(C(=O)OCC)C(F)(F)F` (stereo unspecified), the AC50 under setting [1] was 35.5 µM [falling, partial curve, poor fit]. The same measure, in the same setting: with `Cc1cccc(-c2noc(-c3c(C)noc3C)n2)c1` the figure was 10 µM [rising, single point]; with `Cc1ccc(SCC(=O)Nc2cccc(C)c2)cc1`, 17.8 µM [falling, partial curve, poor fit]. Still for that read-out and setting: with `COc1cc(/C=C/C(=O)OCC(=O)N2CCC(Cc3ccccc3)CC2)ccc1O` the figure was 23.1 µM [falling, single point]; with `O=C1c2ccsc2SCCN1Cc1cccc(Cl)c1`, 23.1 µM [falling, single point].

On to `O=C1C=CC(=O)N1c1cccc(-c2ccccc2)c1`, for which the AC50 under setting [1] was 11.2 µM [falling, partial curve].

Turning to `CC(=O)c1c(C)oc2ccc(NS(=O)(=O)c3cccs3)cc12`, the AC50 under setting [1] was 22.4 µM [falling, single point]. Turning to `CCCc1nc2ccccc2c(C(=O)OCC(=O)Nc2cccc(S(=O)(=O)N3CCOCC3)c2)c1CC`, the AC50 by setting is: under setting [1], 11.2 µM [falling, partial curve, poor fit]; under setting [2], 11.2 µM [rising, partial curve, poor fit]. For `O=C(NC1CCCCC1)N1CCCCCCC1`, the AC50 by setting is: under setting [1], 15.8 µM [falling, partial curve]; under setting [2], 31.6 µM [rising, partial curve, poor fit]. For the compound `Cc1ccc(C(=O)N2CCN3C(=O)c4ccccc4C23c2ccc(Cl)cc2)cc1` (stereo unspecified), the AC50 under setting [1] was 29.1 µM [falling, single point]. Same read-out and setting: with `O=C(Cn1c(=O)oc2ccccc21)Nc1cccc(Cl)c1` the figure was 5.62 µM [falling, partial curve]. With `CCOc1ccc(N=C2SC(C(=O)Nc3ccccc3C#N)C(N)=C2C(=O)Nc2ccc(Cl)cc2)cc1` (stereo unspecified), under setting [2], the AC50 was 14.1 µM [rising, partial curve, poor fit]. Regarding `Cc1cc2nc(-c3ccc(SCC(=O)Nc4ccc(S(=O)(=O)NC5CC5)cc4)nc3)[nH]c2cc1C`, the AC50 under setting [1] is 1.84 µM [falling, partial curve]. On to `CC1(C)CC(NS(=O)(=O)c2cccc3ccccc23)CC(C)(C)N1`, for which, under setting [1], the AC50 was 0.0891 µM [rising, full curve, poor fit]. For `N#Cc1cn(-c2ccccc2)nc1-c1ccccc1`, under setting [1], the AC50 is 11.2 µM [rising, partial curve, poor fit]. With `Cc1ccc2[nH]c(=O)c(CN(C(=O)c3cccc([N+](=O)[O-])c3)C(C)(C)C)cc2c1`, under setting [1], the AC50 is 35.5 µM [rising, partial curve, poor fit]. Regarding `CC1=NN(C(=O)c2c(Br)cnn2C)C(O)(C(F)(F)F)C1` (stereo unspecified), under setting [1], the AC50 is 6.31 µM [falling, single point]. Still for that read-out and setting: for `O=C(Nc1cccc(S(=O)(=O)N2CCCC2)c1)c1ccc(Cl)nc1` the value was 5.8 µM [falling, partial curve].

For the compound `O=C(Nc1ccc(NC(=O)c2ccccc2F)cn1)c1ccco1`, the AC50 under setting [1] was 11.2 µM [falling, single point]. In the case of `CCOc1ccc(C(=O)NC(=S)Nc2cccc(S(=O)(=O)NC3=NCCC3)c2)cc1`, the AC50 by setting is: under setting [1], 22.4 µM [rising, single point]; under setting [2], 17.8 µM [falling, partial curve]. For `CCCc1[nH]nc2c1C(c1cc(OC)ccc1F)C(C#N)=C(N)O2` (stereo unspecified), the concentration at half-maximal activity (AC50) under setting [1] was 22.4 µM [falling, single point]. In the case of `COc1cc(C(=O)NCC(c2ccco2)N2CCc3ccccc32)cc(OC)c1OC` (stereo unspecified), the AC50 under setting [1] is 14.6 µM [falling, single point]. For the compound `Cc1c(/C=N/n2cnnc2)c2ccccc2n1CCOc1ccccc1`, the AC50 under setting [2] was 15.8 µM [falling, partial curve, poor fit]. `O=C(Nc1ccc(Cl)cc1C(F)(F)F)C(Sc1nnc(-c2cccs2)o1)c1ccccc1` (stereo unspecified): the AC50 under setting [1] was 29.1 µM [falling, single point]. As for `CC#C[C@]1(O)CC[C@H]2[C@@H]3CCC4=CC(=O)CCC4=C3[C@@H](c3ccc(N(C)C)cc3)C[C@@]21C`, the AC50 under setting [2] is 17.8 µM [rising, partial curve, poor fit]. Take `Cc1ccc2c(c1)sc(-c1ccc(N(C)C)cc1)[n+]2C`: the AC50 under setting [1] was 14.1 µM [falling, partial curve, poor fit]. With `NS(=O)(=O)c1ccc(N/N=C/c2ccc(C(=O)O)cc2)c([N+](=O)[O-])c1`, under setting [1], the AC50 was 3.98 µM [falling, partial curve]. In the case of `CCc1nnc(NC(=O)CSc2nnc(CNc3cccc(Cl)c3)n2CC)s1`, the AC50 under setting [1] is 16.4 µM [falling, single point]. On to `COC(=O)[C@]1(C)N[C@H](CN(C)S(=O)(=O)c2ccc(F)cc2)[C@@H]2C(=O)N(C)C(=O)[C@@H]21`, for which the AC50 under setting [1] is 16.4 µM [rising, partial curve, poor fit].

On to `O=C(NCCc1ccccc1)c1c[nH]c2c(F)cccc2c1=O`, for which the AC50 under setting [1] was 14.1 µM [falling, single point]. For the compound `COC(=O)c1ccc(C(=O)NC2CCSc3ccccc32)cc1` (stereo unspecified), under setting [1], the AC50 is 15.8 µM [falling, single point]. Still for that read-out and setting: for `C=C1C(=O)O[C@@]23[C@H]1CC[C@@H](C)[C@@H]2CC[C@@]1(C)O[C@@H]31` the value was 6.51 µM [falling, full curve]. `Cc1ccccc1NC(=S)NCc1ccc2c(c1)cc(C)n2C`: the AC50 is 16.4 µM [rising, partial curve] under setting [1] and 5.8 µM [falling, partial curve] under setting [2]. For `O=c1c2ccccc2nc(-c2ccccc2)n1CCCn1ccnc1`, the AC50 under setting [1] is 35.5 µM [rising, single point].

Take `COc1ccc(/C=N\NC(=O)c2ccc(-c3ccccc3)cc2)cc1COC(C)=O`: the AC50 under setting [1] was 10 µM [falling, partial curve, poor fit].
